Experimental findings from article PMC10685313 are described below.

To fix the notation:
B1: progesterone receptor membrane component 1, Myc-tagged wild type (PGRMC1-myc) [not stated] / two pore channel TPC1, GFP-tagged (TPC1-GFP) [human] (parent)
chain 1: MAAEDVVATGADPSDLESGGLLHEIFTSPLNLLLLGLCIFLLYKIVRGDQPAASGDSDDDEPPPLPRLKRRDFTPAELRRFDGVQDPRILMAINGKVFDVTKGRKFYGPEGPYGVFAGRDASRGLATFCLDKEALKDEYDDLSDLTAAQQETLSDWESQFTFKYHHVGKLLKEGEEPTVYSDEEEPKDESARKND
chain 2: not shown

The variants in the assay derive from B1. As to the kind of experiment: co-immunoprecipitation (TPC1-GFP IP, anti-myc Western blot densitometry). Particulars: with two pore channel TPC1, GFP-tagged (TPC1-GFP) [human]; U2OS cells co-expressing PGRMC1-myc constructs and TPC1-GFP; parent: 100; read off a plot. In general terms: Immunoblotting shows a protein as a band on a membrane.
As to chain 1 Y113F, the percent of parent worked out at 31 % ctrl.
